Measurements: article PMC10626543

Sequences of proteins named here, by UniProt entry; tags and fusion partners are left off. Residues count along the entry.
UniProt P48678, residues 1-647: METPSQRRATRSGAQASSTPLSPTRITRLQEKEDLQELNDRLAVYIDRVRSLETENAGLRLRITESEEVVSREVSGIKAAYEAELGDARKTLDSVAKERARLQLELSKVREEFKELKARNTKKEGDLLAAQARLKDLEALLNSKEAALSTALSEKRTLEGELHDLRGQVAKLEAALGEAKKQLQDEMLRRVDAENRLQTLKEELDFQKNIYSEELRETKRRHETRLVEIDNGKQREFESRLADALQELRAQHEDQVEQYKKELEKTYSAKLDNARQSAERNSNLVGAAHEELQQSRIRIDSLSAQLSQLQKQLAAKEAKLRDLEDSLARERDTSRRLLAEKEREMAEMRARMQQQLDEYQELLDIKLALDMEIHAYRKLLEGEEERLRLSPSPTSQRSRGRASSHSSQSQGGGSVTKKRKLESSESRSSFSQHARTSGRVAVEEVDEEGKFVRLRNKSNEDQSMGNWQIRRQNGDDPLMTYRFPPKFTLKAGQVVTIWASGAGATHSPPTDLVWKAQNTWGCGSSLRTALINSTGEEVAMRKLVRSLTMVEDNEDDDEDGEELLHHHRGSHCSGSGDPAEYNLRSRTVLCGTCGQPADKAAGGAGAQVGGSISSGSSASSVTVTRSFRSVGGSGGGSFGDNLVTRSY

Key:
[1] = biological target: native lamin A/C (mouse (endogenous in heart, skeletal muscle and brain)) (UniProt P48678); experiment: affinity purification with mass spectrometry; native lamin A/C immunoprecipitated with mAb 4C11 and Protein G Sepharose from sonicated heart lysates of old IL10-KO and control C57Bl/6 female mice (five each); 50 mM Tris pH 7.4, 300 mM NaCl, 0.3% Triton X-100, 4°C; TMT 10-plex
[2] = biological target: native lamin A/C (mouse (endogenous in heart, skeletal muscle and brain)) (UniProt P48678); experiment: affinity purification with mass spectrometry; native lamin A/C immunoprecipitated with mAb 4C11 and Protein G Sepharose from sonicated skeletal muscle lysates of old IL10-KO and control C57Bl/6 female mice (five each); 50 mM Tris pH 7.4, 300 mM NaCl, 0.3% Triton X-100, 4°C; TMT 10-plex

binding [1]	binding [2]	Binder
binds	binds	SH3 domain-containing protein 21 (protein, UniProt Q7TSG5 1-549) MVQSELQLQPRAGRRADASNWGDFGSDKGGLGNTDIPPITPNSQRPPKLSNLTYDSPPDYLRTVSCPETCRVLFDYQPEAPDELALQKGDLVKVLRKTTEDKGWWEGECQGRRGVFPDNFVIPPPPIRKLIPRKIISRESAPIKETKKLMPKSSLPTVKKLAAAASAPGRAKTLSTPSGDSQKRPSRNSGFNGSCLNGGPRQPGRKGSRTQASQQHSASSQEDEQKSPGKGPSRSKTPTPEKTRLPDKVLAPETIPAPDKVSIPKDPVPKKAPDSDKIPATEDTTLDKAGTPESTLSGNKPAKDEALDLKMALHEDTAPALVKILTPEHMIFKKEPSRDNDQCQHLPQGGSTQRPESPAPSNNIQVPGEYSPPPDSSERSCCRVRQVNGSFPAQSKAEDVSAMEEANFLEEPLAKDERTLNKALPKKLPSERAGPQKQVLPQESAPTPQVPHTIQQMPVPEEAPTLHPLTPLTSPKSKNDRMDVLESLKEEVGLLRSRLELLELKLEQKMGDVWEELKTETLLSPEVQMMQRNRKSFKHAETQTETQTE
binds	binds	Interleukin-1 receptor-associated kinase-like 2 (protein, UniProt Q8CFA1 1-622) MACYIYQLPSWVLDDLCRNIDTLSEWDWMQFASYVITDLTQLRKIKSMERVQGVSITRELLWWWSMRQATVQQLVDLLCHLELYRAAQIVLSWKPVPESTSPLPAFPEAVKPGAVATSRRNLKDEQEKVRPVKPRSLLDTGPIMAGAQRQRPCEMDAPCSLKTDAPDSPQSKYCSTSTSAPKQERLLGLPGDRLFWSEADVVQATEDFDQSHRISEGTFADIYQGQRNGVAFAFKKLREVAGSSPGSMDRFLQAEMQLCLRCCHANVLPLLGFCTGRQFHSLIYPYMANGSLHDRLWAQGNSDMLPWPQRASICSGLLLAVEHLHSLDIIHSNVKSANVLLDQHLNPKLAHPVAHPHPDNKKTKYTVMRTHLFQASAAYLPEHFIRVGQLTKQVDIFSCGIVLAEVLTGIPAMDKDRSPVYLKDLLLSEIPNSTSSVCSRKTSMGKAVVKEICQRHVEKRAGLLPEACEEAWATAVSVCLRRRNASVEEARVSLAGVEEQLRGQLSLPWSRVSEATGSSSNTPEETDDVDNSSLSVPSLVMMASCPGAASSPLFTGHGAAQPSTSGRQEADSSSEACTGPQTPQNATETSWKIEINEAKRRLMENIVLYKEERLDSSELFGP
binds	binds	Cryab (aka Hspb5) (protein, UniProt P23927 1-175) MDIAIHHPWIRRPFFPFHSPSRLFDQFFGEHLLESDLFSTATSLSPFYLRPPSFLRAPSWIDTGLSEMRLEKDRFSVNLDVKHFSPEELKVKVLGDVIEVHGKHEERQDEHGFISREFHRKYRIPADVDPLTITSSLSSDGVLTVNGPRKQVSGPERTIPITREEKPAVAAAPKK
binds	binds	Fatty acid-binding protein, adipocyte (mouse) (protein, UniProt P04117 1-132) MCDAFVGTWKLVSSENFDDYMKEVGVGFATRKVAGMAKPNMIISVNGDLVTIRSESTFKNTEISFKLGVEFDEITADDRKVKSIITLDGGALVQVQKWDGKSTTIKRKRDGDKLVVECVMKGVTSTRVYERA
binds	binds	Tyrosine-protein kinase SgK223 (protein, UniProt Q571I4 1-1373) MSACSDFVEHIWKPGSCKNCFCLRSDHQPTAGHPKARANSLPAGTRLPARPENCRLDDEGVNGLAYSKPTIAVKPTMMTSETSDLWTEASLSAEVPKVNWRRTPGKLLLPKQEDEPIVYLGSFRGLQKPASPLACTDGNSRCPPAYTMVGLHNLEARVDRNTAFQPVSFQEEKAGREELPSAHESFRQKLAAFAGMTSSCPKGPRPCTSPQPLRESLPSEDDSDQRCSPSGDSEGGEYCSILDCCPESKDAVHSTEGSGRRGGDCSPTCREQGPRTRPTEEEKQGLSFPRECCGQGSTANPPRLGPKKPSLNSEAASSSDGLSCGSSRSGASSPFAPHLENDYCSLVKEPASGKQQDLSGHFLTSGKCVGQAAELQPASLLRDPVQPEPIYAESAKRKKAAPGPPRPEPKKEQVPAGHSQGQVWTGDTWIQKTPPSWSQDREGANPAPQVATTITVIAAHPEEDHRTIYLSSPDSAVGVQWPRGPSNQDLQAGEEEPLVAQGLTSRESHPHNVTENTAKEKPAIPPKLSKSSPGGSPVSPAPPLTDHSDGNTGGSSVGPQLLSRVPANLTSSCHTNGVATAGDSAKCPPPATSSSVLDQRRPRYQTGAWSRQCRIEEEEEVGQELSQSWGRELENGTADHSNSSTWHRLHPIDGTSGQNSKTNSGMSKSASFAFEFPKDRGRLEAFSPPPPPPKSRHLLKMNKSSSDLEKVSQSSAESLSPSFRGAHVSFTTGSTDSLASDSRPCSDGGPSYEPTHSPTISGKKLFAPVPFPSGSTEDVSPGGGPAQPPPLPQKKIVSRAASSPDGFFWTQGSPKPRTASPKLNLSHSETNVCAHDEPPFNCSLNSGNRSHHVFSSSEPLGKAFKGNAPWAPALGLANSKGGCGSPSLQCRAATSTSSSQLSVSSQASSSSTQLQLHSLLSSISSKEGTYAKLGGLYTQSLARLVTKCEDLFMGGQKKELRFNENYWSLFKLTCNKPCCDSGDAIYYCATCSEDPGSIYAVKICKTPEPKSASYCSPSVPVHFNIQQDCGHFVASVPSSMLASPDTSSKDTAPAVSPQPPAQEQDCVVVITREVPHQTASDFVRDSMASHRAEPEVYERRVCFLLLQLCNGLEHLKEHGIIHRDLCLENLLLAHCNPQSSPGPSATPTVPTTTSRCPSAAPAATTACQGGPGEKQLPRLIISNFLKAKQKPGGTTNLQQKKSQARLAPEIVSASQYRKFDEFQTGILIYELLHQPNPFEVRAQLRERDYRREDLPPLPTLSLYSPGLQQLAHLLLEADPIKRIRIGEAKRVLQCLLWGPRRELVEQPCTSEEVLCNTLHNWIDMKRALMMMKFAEKAVDRRRGVELEDWLCCQYLASAEPGALLQSLKLLQLL
binds	binds	PDZ and LIM domain protein 5 (protein, UniProt Q8CI51-2 1-337) MSNYSVSLVGPAPWGFRLQGGKDFNMPLTISSLKDGGKASQAHVRIGDVVLSIDGISAQGMTHLEAQNKIKACTGSLNMTLQRASAAAKSEPVSVQKGEPKEVVKPVPITSPAVSKVTSTTNMAYNKAPRPFGSVSSPKVTSIPSPSSAFTPAHAATSSHASPTPVAAATPLHLSASGLHVSANLSADQCSSPPNTGKPAVNVPRQPTVTSVCSESAQELAEGQRRGSQGDIKQQNGPPRKHIVERNTEFYHIPTHSDASKKRLIEDTEDWRPRTGTTQSRSFRILAQITGTEHLTESENDNTKKAKEKIPLHVFSPKYTKLRDWHHEVSARALNVQ
binds	binds	Trimeric intracellular cation channel type A (protein, UniProt Q3TMP8 1-298) MDLMSALSLGELALSFSRVPLFPVFDLSYFIVSIIYLKYEPGAVELSRRHPVASWLCAMLHCFGSYILADLLLGEPIIDYFSNSSSILLASGVWYLIFFCPLDLFYKCVCFLPVKLIFVAMKEVVRVRKIAVGIHHAHHHYHHGWFIMIATGWVKGSGVALLSNVEQLLRGVWKPETNEILHMSFPTKASLYGAILFTLQQTRWLPVSKASLIFVFTMFMVSCKVFLTATHSHSSPFDILEGYICPVLFGATWGGDHHHDNHGAPHGMGLGTQHSGLPAKAKEELGEGSRKKKTKKAD
binds	binds	Fhl1 (protein, UniProt P97447 1-280) MSEKFDCHYCRDPLQGKKYVQKDGRHCCLKCFDKFCANTCVDCRKPISADAKEVHYKNRYWHDNCFRCAKCLHPLASETFVSKDGKILCNKCATREDSPRCKGCFKAIVAGDQNVEYKGTVWHKDCFTCSNCKQVIGTGSFFPKGEDFYCVTCHETKFAKHCVKCNKAITSGGITYQDQPWHAECFVCVTCSKKLAGQRFTAVEDQYYCVDCYKNFVAKKCAGCKNPITGFGKGSSVVAYEGQSWHDYCFHCKKCSVNLANKRFVFHNEQVYCPDCAKKL
binds	binds	dystrobrevin-alpha (protein, UniProt Q9D2N4 1-746) MIEDSGKRGNTMAERRQLFAEMRAQDLDRIRLSTYRTACKLRFVQKKCNLHLVDIWNVIEALRENALNNLDPNIELNVARLEAVLSTIFYQLNKRMPTTHQIHVEQSISLLLNFLLAAFDPEGHGKISVFAVKMALATLCGGKIMDKLRYIFSMISDSSGVMVYGRYDQFLREVLKLPTAVFEGPSFGYTEQSARSCFSQQKKVTLNGFLDTLMSDPPPQCLVWLPLLHRLANVENVFHPVECSYCHSESMMGFRYRCQQCHNYQLCQDCFWRGHAGGSHSNQHQMKEYTSWKSPAKKLTNALSKSLSCASSREPLHPMFPDQPEKPLNLAHIVPPRPVTSMNDTLFSHSVPSSGSPFITRSSPPKDSEVEQNKMLARAAPAFLKGRGIQYSLNVADRLADEHVLIGLYVNMLRNDPPCMLESSNRLDEEHRLIARYAARLAAESSSSQPTQQRSAPDISFTIDANKQQRQLIAELENKNREILQEIQRLRVEHEQASQPTPEKAQQNPTLLAELRLLRQRKDELEQRMSALQESRRELMVQLEGLMKLLKEEELKQGTQGASSPRSSPSHTISRPIPMPIRSASACPTPTHTPQDSLTGVGGDVQEAFAQSSRRNLRSDLLVAADSITNTMSSLVKELNSEVASETESTVDSEFSRPQFEDLAPSPTSEKAFLAQIHSRKPGYIHGGAASTTHGDMVPEDGDPYTQPEDGNYENESVRQLENELQLEEYLKQKLQDEAYQVSLQG

Results are given in words; binding and its absence hold for the method and conditions named. Binding seen in cells or lysates may run through a third protein. A yes stands for co-enrichment or nearness to the bait. Other partners may have been found.
